Assay: Sucrose density-gradient fractionation of Przemko latex with exogenous alkaloid
Parameters: species or system Papaver somniferum
Conditions: exogenous alkaloid (420-460 mM) added to 80 µL Przemko latex, 14-66% sucrose gradient

CN1CC[C@]23c4c5ccc(O)c4O[C@H]2[C@@H](O)C=C[C@H]3[C@H]1C5 [Morphine, morphine]
formation of dense aggregate bands in gradient: higher-density material was not observed
